The supplement of paper PMC10398353
“And” between values parts separate entries of the source, which are not always exact repeats. Equal values may be shown once. Where a name gives a salt, the structure may show the parent alone. ± gives the standard deviation of the averaged measurements. Some of the results follow. This is a noisy data set.

system: Salmonella enterica serovar Typhimurium ST313 D23580; assay: normalized bacterial growth (OD600 20 h minus 0 h, interquartile-mean normalized) (fraction of plate interquartile mean); higher = more bacterial growth (less inhibition); conditions: LPM (pH 5.8, low phosphate, low Mg2+), concentration: 10 µM, temperature: 37 °C

Row | SMILES | normalized bacterial growth
1 | COc1ccc2cc([C@H](C)C(=O)O)ccc2c1 [(-)-Naproxen sodium] | 0.978
2 | COc1ccc2cc([C@H](C)C(=O)O)ccc2c1 [Naproxen] | 1.22
3 | Nc1cc(N2CCCCC2)nc(N)[n+]1[O-] [Minoxidil] | 1.17 ± 0.033
4 | C[C@@]12C=Cc3occc3[C@H]1CC[C@@]13C[C@@H](CC[C@H]12)[C@@](O)(CO)C3 | 0.989
5 | Nc1ncnc2c1ncn2[C@@H]1O[C@H](COP(=O)(O)OP(=O)(O)OP(=O)(O)OP(=O)(O)OC[C@@H]2O[C@H](n3cnc4c(N)ncnc43)C(O)[C@@H]2O)[C@H](O)C1O (some centres undefined) ["P1,P4-Di(adenosine-5')tetraphosphate triammonium"] | 0.934
6 | CC1=C(/C=C/C(C)=C/C=C/C(C)=C/CO)C(C)(C)CCC1 | 0.94
7 | COc1ccccc1N1CCN(CCN(C(=O)c2ccc(I)cc2)c2ccccn2)CC1 [p-MPPI hydrochloride] | 0.738
8 | O=C(O)c1ccccc1OP(=O)(O)O | 1.27
9 | COC(=O)c1c(C)cc(OC(=O)c2c(C)cc(O)c(C=O)c2O)c(C)c1O | 0.915
10 | OC1(c2ccc(Cl)cc2)CCN(Cc2c[nH]c3ccccc23)CC1 | 0.841
11 | C/C=C(/C(=C/C)c1ccc(O)cc1)c1ccc(O)cc1 | 1.15
12 | Cc1ncc([N+](=O)[O-])n1CC(C)O (centres undefined) | 1.14
13 | Cc1[nH]c(=O)c(C#N)cc1-c1ccc2nccn2c1 [Olprinone hydrochloride] | 1.09
14 | CC(=O)O[C@H]1C(=O)[C@@]2(C)[C@H]([C@H](OC(=O)c3ccccc3)[C@]3(O)C[C@H](OC(=O)[C@H](O)[C@@H](NC(=O)c4ccccc4)c4ccccc4)C(C)=C1C3(C)C)[C@]1(OC(C)=O)CO[C@@H]1C[C@@H]2O | 0.766
15 | CC(=O)O[C@H]1C(=O)[C@@]2(C)[C@H]([C@H](OC(=O)c3ccccc3)[C@]3(O)C[C@H](OC(=O)[C@H](O)[C@@H](NC(=O)c4ccccc4)c4ccccc4)C(C)=C1C3(C)C)[C@]1(OC(C)=O)CO[C@@H]1C[C@@H]2O [Paclitaxel] | 0.487
16 | COc1cccc2c1C(=O)c1c(O)c3c(c(O)c1C2=O)C[C@@](O)(C(=O)CO)C[C@@H]3O[C@H]1C[C@H](N)[C@@H](O)[C@H](C)O1 | 0.674
17 | COc1ccc2c(c1)CC[C@@H]1[C@@H]2CC[C@]2(C)[C@@H](O)CC[C@@H]12 | 1.19
18 | N=C(N)c1ccc(N)cc1 [4-Aminobenzamidine dihydrochloride] | 1.1
19 | O[C@H]1[C@H](O)[C@@H](O)[C@H](O)[C@@H](O)[C@H]1O | 0.438
20 | CCCN(CCC)CCc1cccc2c1CC(=O)N2 [Ropinirole hydrochloride] | 0.487
21 | CCCN(CCC)CCc1cccc2c1CC(=O)N2 | 1.19
22 | C=C(C)[C@@H]1CC[C@]2(CO)CC[C@]3(C)[C@H](CC[C@@H]4[C@@]5(C)CC[C@H](O)C(C)(C)[C@@H]5CC[C@]43C)[C@@H]12 | 1.07 ± 0.2
23 | CCCn1c(=O)c2[nH]c(C3CCCC3)nc2n(CCC)c1=O ["8-Cyclopentyl-1,3-dipropylxanthine"] | 1.01
24 | O=C(CCNNC(=O)c1ccncc1)NCc1ccccc1 [Nialamide] | 0.978
25 | N/C(=N\C(=O)c1nc(Cl)c(N)nc1N)NCc1ccccc1 [Benzamil hydrochloride] | 0.85
26 | CCC(=O)c1ccc2c(c1)N(CCCN(C)C)c1ccccc1S2 [Propionylpromazine hydrochloride] | 0.669
27 | Cc1nc2ccccn2c(=O)c1CCN1CCC(C(=O)c2ccc(F)cc2)CC1 [Pirenperone] | 1.01

2 records picked at random from those above:
Row | SMILES | normalized bacterial growth
7 | COc1ccccc1N1CCN(CCN(C(=O)c2ccc(I)cc2)c2ccccn2)CC1 [p-MPPI hydrochloride] | 0.738
2 | COc1ccc2cc([C@H](C)C(=O)O)ccc2c1 [Naproxen] | 1.22

The listing continues:

Row | SMILES | normalized bacterial growth
28 | CSc1nc2cc(Cl)c(Oc3cccc(Cl)c3Cl)cc2[nH]1 | 0.708
29 | CCCCC[C@H](O)/C=C/[C@H]1[C@H](O)CC(=O)[C@@H]1C/C=C\CCCC(=O)O | 0.948
30 | CO[C@@H]1[C@H](OC(=O)/C=C/C=C/C=C/C=C/C(=O)O)CC[C@]2(CO2)[C@H]1[C@@]1(C)O[C@@H]1CC=C(C)C | 0.365
31 | NC(=O)c1cnccn1 [Pyrazinecarboxamide] | 1.15
32 | CC(=O)c1ccc[nH]1 | 0.845
33 | CN1C(=O)CC[C@H]1c1cccnc1 | 1.08
34 | Cc1cc(O)c(C=O)c(O)c1C(=O)O | 1.01
35 | CC[C@@H]1C(=O)OC[C@@H]1Cc1cncn1C [Pilocarpine nitrate] | 1.16
36 | CC[C@@H]1C(=O)OC[C@@H]1Cc1cncn1C | 0.938
37 | CC[C@@H]1C(=O)OC[C@@H]1Cc1cncn1C [(+)-Pilocarpine hydrochloride] | 1.09
38 | CC(=O)N[C@H]1[C@H]([C@H](O)[C@H](O)CO)OC(O)(C(=O)O)C[C@@H]1O (mixture of isomers) | 0.956
39 | COc1cc(OC)c2c(c1Cl)O[C@@]1(C(=O)CC(=O)C[C@H]1C)C2=O | 0.887
40 | CCn1c(=O)[nH]c2cc(Cl)c(Cl)cc21 | 1.1
41 | CC(O)Cn1cnc2c1c(=O)n(C)c(=O)n2C (centres undefined) | 0.48
42 | N[C@@H](Cc1c[nH]c2ccccc12)C(=O)O [L-Tryptophan] | 0.914
43 | N[C@@H](Cc1c[nH]c2ccccc12)C(=O)O | 1.07
44 | O=C(OOC(=O)c1ccccc1)c1ccccc1 | 1.03
45 | Nc1cc(=O)[nH]c(N)n1 ["2,4-Diamino-6-pyrimidinone"] | 1.13
46 | NC(=O)CCCCC1CCSS1 (centres undefined) | 0.954
47 | NS(=O)(=O)c1cc2c(cc1C(F)(F)F)NCNS2(=O)=O | 0.757
48 | OC[C@H]1O[C@@H](n2cnc3c(N[C@H]4CCC[C@@H]4O)ncnc32)[C@H](O)[C@@H]1O | 1.43
49 | COC1(C2=NCCN2)COc2ccccc2O1 (centres undefined) | 0.839
50 | O=C(/C=C/c1ccc(O)cc1)c1ccc(O)cc1O [Isoliquiritigenin] | 0.816
51 | Cc1c(NC(=O)c2cccnc2)c(=O)n(-c2ccccc2)n1C | 1.18
52 | CS(=O)(=O)OCCCCOS(C)(=O)=O | 1.36
53 | OCc1c[nH]c2ccccc12 | 0.794
54 | COc1ccc(-c2coc3c(O)c(O)c(OC)cc3c2=O)cc1 | 0.912

Row | SMILES | normalized bacterial growth
55 | O=C(Nc1cccc(C(=O)Nc2ccc(S(=O)(=O)O)c3cc(S(=O)(=O)O)cc(S(=O)(=O)O)c23)c1)Nc1cccc(C(=O)Nc2ccc(S(=O)(=O)O)c3cc(S(=O)(=O)O)cc(S(=O)(=O)O)c23)c1 | 1.1
56 | Oc1ccc([C@H]2Oc3cc(O)cc(O)c3C[C@H]2O)cc1 | 0.82
57 | COc1cccc2c1C(=O)c1c(O)c3c(c(O)c1C2=O)C[C@@](O)(C(C)=O)C[C@@H]3O[C@H]1C[C@H](N)[C@H](O)[C@H](C)O1 [Daunorubicin hydrochloride] | 1.55
58 | COc1cccc2c1C(=O)c1c(O)c3c(c(O)c1C2=O)C[C@@](O)(C(C)=O)C[C@@H]3O[C@H]1C[C@H](N)[C@H](O)[C@H](C)O1 | 1.33 ± 0.34
59 | O=C(O[C@@H]1Cc2c(O)cc(O)cc2O[C@@H]1c1cc(O)c(=O)c2c(O)c(O)cc([C@H]3Oc4cc(O)cc(O)c4C[C@H]3OC(=O)c3cc(O)c(O)c(O)c3)c2c1)c1cc(O)c(O)c(O)c1 | 1.07
60 | Ic1ccc(N2CCN(Cc3c[nH]c4ncccc34)CC2)cc1 ["L-750,667 trihydrochloride"] | 0.335
61 | OCc1ccccc1O[C@@H]1O[C@H](CO)[C@@H](O)[C@H](O)[C@H]1O | 0.881
62 | Nc1ncnc2c1nc(Br)n2C1OC2COP(=O)(O)O[C@@H]2C1O (some centres undefined) [8-Bromo-cAMP sodium] | 0.928
63 | CCCCCCCCCCCCC/C=C/[C@@H](O)[C@H](CO)NC(=O)CCCCC | 1.26
64 | C=CC1=C(C(=O)O)N2C(=O)[C@@H](NC(=O)/C(=N\O)c3csc(N)n3)[C@H]2SC1 | 0.0332
65 | CC(=O)NS(=O)(=O)c1ccc(N)cc1 | 0.991
66 | CC(=O)NS(=O)(=O)c1ccc(N)cc1 [Sulfacetamide sodic hydrate] | 0.82
67 | C=C1CC[C@@H]2[C@](C)(CO)[C@H](O)CC[C@@]2(C)[C@@H]1C/C=C1/C(=O)OC[C@H]1O | 0.9 and 0.924
68 | CCN(CC)CC(=O)Nc1c(C)cccc1C [Lidocaine hydrochloride] | 0.877
69 | CC(=O)OCC(=O)[C@@]12OC(C)(C)O[C@@H]1C[C@H]1[C@@H]3C[C@H](F)C4=CC(=O)C=C[C@]4(C)[C@@]3(F)[C@@H](O)C[C@@]12C | 1.32
70 | CC(=O)OCC(=O)[C@@]12OC(C)(C)O[C@@H]1C[C@H]1[C@@H]3C[C@H](F)C4=CC(=O)C=C[C@]4(C)[C@@]3(F)[C@@H](O)C[C@@]12C [Fluocinonide] | 0.94
71 | c1ccc2c(CC3=NCCN3)cccc2c1 | 1.2
72 | c1ccc2c(CC3=NCCN3)cccc2c1 [Naphazoline hydrochloride] | 1.17
73 | COC(=O)C1=CO[C@@H](C)[C@H]2CN3CCc4c([nH]c5ccccc45)[C@@H]3C[C@H]12 [Ajmalicine hydrochloride] | 1.05
74 | O=C(O)[C@@H]1C[C@H](C(=O)O)N1 ["cis-Azetidine-2,4-dicarboxylic acid"] | 1.1
75 | CSC(=N)NCCC[C@H](N)C(=O)O [S-Methyl-L-thiocitrulline acetate] | 1.1
76 | CO[C@@H]1[C@@H](O[C@@H]2O[C@H](C)[C@@H](O[C@H]3C[C@@](C)(O)[C@@H](OC(=O)CC(C)C)[C@H](C)O3)[C@H](N(C)C)[C@H]2O)[C@@H](CC=O)C[C@@H](C)[C@@H](O)/C=C/C=C/C[C@@H](C)OC(=O)C[C@H]1OC(C)=O [Josamycin] | 0.718
77 | NC(=O)NCCC[C@H](N)C(=O)O | 1.26
78 | C[C@@H]1O[C@@H](O[C@H]2[C@H](Oc3cc(O)c4c(=O)c(O)c(-c5ccc(O)cc5)oc4c3)O[C@H](CO)[C@@H](O)[C@@H]2O)[C@H](O)[C@H](O)[C@H]1O | 1.13
79 | O=C1NC(=S)S/C1=C\c1cc(Br)ccc1OCc1ccccc1Br [PRL-3 Inhibitor I] | 0.834

Look-ups from above:
normalized bacterial growth with Oc1ccc([C@H]2Oc3cc(O)cc(O)c3C[C@H]2O)cc1 is entered as 0.82
normalized bacterial growth with CO[C@@H]1[C@@H](O[C@@H]2O[C@H](C)[C@@H](O[C@H]3C[C@@](C)(O)[C@@H](OC(=O)CC(C)C)[C@H](C)O3)[C@H](N(C)C)[C@H]2O)[C@@H](CC=O)C[C@@H](C)[C@@H](O)/C=C/C=C/C[C@@H](C)OC(=O)C[C@H]1OC(C)=O [Josamycin] is entered as 0.718
normalized bacterial growth with C[C@@H]1O[C@@H](O[C@H]2[C@H](Oc3cc(O)c4c(=O)c(O)c(-c5ccc(O)cc5)oc4c3)O[C@H](CO)[C@@H](O)[C@@H]2O)[C@H](O)[C@H](O)[C@H]1O is entered as 1.13
normalized bacterial growth with COC(=O)C1=CO[C@@H](C)[C@H]2CN3CCc4c([nH]c5ccccc45)[C@@H]3C[C@H]12 [Ajmalicine hydrochloride] is entered as 1.05
